Source: PubChem BioAssay AID624246 (National Center for Advancing Translational Sciences (NCATS), 2012)
About 100 (0.027%) of roughly 370,000 compounds were called active. The shares of active, inactive and inconclusive entries below differ from those in the screen. Calls follow the shape of the dose curve; as a rule, active = well fitted inhibition curve with a large enough effect in the polarisation, with a control signal flat; inconclusive = small, poorly fitted or top-dose-only effect, or effect the other way, or a change in a side signal; inactive = no such curve, though single readings can be large or run the other way; the % refers to the polarisation. Potencies beside an inconclusive call are fits to weak or partial responses and may not hold up. “Side channel” marks fits to a control or component signal instead of the main read-out.

By UniProt entry, the sequences of proteins in these tests, tags left out. Where a name states a change or a piece, a line headed by the entry shows the natural chain unless it says otherwise.
UniProt P11308: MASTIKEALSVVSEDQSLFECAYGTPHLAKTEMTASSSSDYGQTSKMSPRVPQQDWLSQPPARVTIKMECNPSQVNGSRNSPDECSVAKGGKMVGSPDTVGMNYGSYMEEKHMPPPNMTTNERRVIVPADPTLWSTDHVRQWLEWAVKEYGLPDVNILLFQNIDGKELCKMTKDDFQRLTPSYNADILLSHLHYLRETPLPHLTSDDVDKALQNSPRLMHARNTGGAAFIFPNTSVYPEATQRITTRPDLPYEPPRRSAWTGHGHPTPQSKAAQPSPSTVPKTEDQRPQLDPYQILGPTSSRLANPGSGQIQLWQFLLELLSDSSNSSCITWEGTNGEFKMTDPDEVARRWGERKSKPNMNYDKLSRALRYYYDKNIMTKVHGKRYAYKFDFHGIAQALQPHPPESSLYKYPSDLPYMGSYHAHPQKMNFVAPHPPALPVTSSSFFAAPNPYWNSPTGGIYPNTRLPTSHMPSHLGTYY

These compounds were tested against Transcriptional regulator ERG (Homo sapiens) (UniProt P11308) (assay: qHTS for Small Molecule Inhibitors of the ERG Ets/DNA interaction). Conditions: fluorescence polarization, His-ERG Ets domain / labelled DNA; series mostly up to 76.9 µM.
Method in brief: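 His-tagged ERG Ets domain (1 uM in the protein solution; 300mM KCl, 50mM Tris-HCl, 1mM EDTA, 1mM DTT, pH 7.5) received compound, then a probe mix of 5 nM fluorescein-DNA and 100nM Texas-615-DNA. Fluorescence polarization was read for both dyes.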
Potency is read from the fitted curve at half-maximal effect.

Row | SMILES | Potency
1 | Cc1cccc(-c2nc(CSCC(=O)N3CCN(c4ccccc4)CC3)c(C)o2)c1 | inactive
2 | Cc1ccccc1C(=O)Nc1ccc2nc(Nc3cccc(C(F)(F)F)c3)cc(C)c2c1 | inactive
3 | Cc1noc(C)c1C(=O)Nc1sc2c(c1C(N)=O)CCCCC2 | inconclusive: 1.26 µM [fluorescent, side channel, full curve, poor fit]
4 | C=CCNC(=O)c1onc(CSc2ccccc2)c1C(=O)O | inconclusive: 50.1 µM [inhibitor, single point]
5 | COc1c(C(=O)Nc2ccc(Cc3ccncc3)cc2)ccc2ccccc12 | inactive
6 | COc1cc(/C=C2\C(=N)N3N=CSC3=NC2=O)cc(Br)c1OC(=O)c1ccco1 | inactive
7 | Cc1cccc(NC(=O)NCCc2ccc(Cl)cc2)c1 | inactive
8 | Cc1csc(SCC(=O)NC2CCS(=O)(=O)C2)n1 (stereo not given) | inconclusive: 50.1 µM [inhibitor, single point]
9 | CCOc1ccc2nc(N3CCC(C(=O)NCCCN4CCOCC4)CC3)sc2c1 | inactive
10 | CC(/C=C1\SC(=S)N(NC(=O)c2ccc(C)cc2)C1=O)=C\c1ccccc1 | inconclusive: 39.8 µM [fluorescent, side channel, single point]
11 | Cc1ccc(C(C(=O)NCC2CCCO2)N(Cc2ccccc2)C(=O)c2ccc(-c3ccccc3)[nH]2)o1 (stereo not given) | inactive
12 | COc1ccc(N(C(=O)Cn2nnc(-c3ccc(Cl)cc3)n2)C(C(=O)NCC2CCCO2)c2ccncc2)cc1 (stereo not given) | inconclusive: 31.6 µM [inhibitor, partial curve, poor fit]
13 | C=C(C)c1cccc(C(C)(C)NC(=O)NC2CC(C)(C)NC(C)(C)C2)c1 | inconclusive: 17.8 µM [inhibitor, partial curve, poor fit]
14 | CN1C(=O)C(=C2CCCCCC2)SC1=S | inactive
15 | O=C(CCN=C1NS(=O)(=O)c2ccccc21)OCc1ccccc1 | inconclusive: 50.1 µM [inhibitor, single point]
16 | Cc1cccc(NC(=S)N(CCN(C)C)Cc2cc3cccc(C)c3[nH]c2=O)c1 | inconclusive: 2.24 µM [quencher, side channel, partial curve, poor fit]
17 | Cc1ccc(CS(=O)(=O)Cc2ccc(C(=O)NC3CCCCCC3)o2)cc1 | inactive
18 | COC(=O)Nc1ccc(S(=O)(=O)NNC(=O)c2c(O)c3ccccc3n(C)c2=O)cc1 | inconclusive: 31.6 µM [inhibitor, partial curve, poor fit]
19 | Cc1cccc(NC(=O)NCc2ccc3c(c2)cc(C)n3C)c1 | inconclusive: 25.1 µM [inhibitor, partial curve, poor fit]
20 | CC(C)(C)c1cc(CN2CCN(CCO)CC2)cc(C(C)(C)C)c1O | inactive
21 | NC(=O)c1cc2ccc(O)cc2oc1=Nc1ccccc1 | inconclusive: 50.1 µM [quencher, side channel, single point]
22 | Cc1ccc(C(=O)NC2CCc3ccccc3C2=O)cc1 (stereo not given) | inactive

Quoted from the listing.
For Potency, Cc1cccc(NC(=O)NCCc2ccc(Cl)cc2)c1 is entered as inactive
For Potency, C=C(C)c1cccc(C(C)(C)NC(=O)NC2CC(C)(C)NC(C)(C)C2)c1 is entered as inconclusive: 17.8 µM [inhibitor, partial curve, poor fit]
For Potency, NC(=O)c1cc2ccc(O)cc2oc1=Nc1ccccc1 is entered as inconclusive: 50.1 µM [quencher, side channel, single point]
For Potency, Cc1noc(C)c1C(=O)Nc1sc2c(c1C(N)=O)CCCCC2 is entered as inconclusive: 1.26 µM [fluorescent, side channel, full curve, poor fit]
For Potency, Cc1ccc(C(C(=O)NCC2CCCO2)N(Cc2ccccc2)C(=O)c2ccc(-c3ccccc3)[nH]2)o1 (stereo not given) is entered as inactive
For Potency, Cc1ccc(C(=O)NC2CCc3ccccc3C2=O)cc1 (stereo not given) is entered as inactive

The results go on.

Row | SMILES | Potency
23 | O=C(O)CC12CC3CC(C1)CC(n1ncc(NCc4ccccc4Cl)c(Cl)c1=O)(C3)C2 | inconclusive: 31.6 µM [inhibitor, single point]
24 | Nc1ccc(N2CCCCC2)cc1N1CCCCC1 | inactive
25 | CCN(Cc1ccccc1)C(=O)CN1C(=O)c2ccccc2C1=O | inconclusive: 3.98 µM [inhibitor, full curve, poor fit]
26 | O=C(COc1coc(CN2CCCc3ccccc32)cc1=O)Nc1cccc([N+](=O)[O-])c1 | inconclusive: 31.6 µM [inhibitor, partial curve, poor fit]
27 | Cc1cc2cc(CNC(=O)c3ccc(Br)o3)ccc2n1C | inconclusive: 44.7 µM [inhibitor, partial curve, poor fit]
28 | COc1cc2ccccc2ccc1=NO | inconclusive: 28.2 µM [inhibitor, partial curve, poor fit]
29 | Cc1ccc(S(=O)(=O)NCC(=O)N(CC(=O)NCC2CCCO2)c2cccc(F)c2)cc1 (stereo not given) | inconclusive: 12.6 µM [inhibitor, partial curve, poor fit]
30 | COc1ccc(-c2noc(CN(C(=O)c3ccc4c(c3)OCO4)C(C)C)n2)cc1OC | inconclusive: 3.55 µM [inhibitor, partial curve, poor fit]
31 | Nc1c(C(=O)O)cnn1-c1ccccc1 | inconclusive: 56.2 µM [inhibitor, single point]
32 | Cc1ccc(S(=O)(=O)NNc2nc3ccccc3nc2C(F)(F)F)cc1 | inactive
33 | O=C(COC(=O)c1ccccc1Sc1ccc(C(F)(F)F)cc1[N+](=O)[O-])NC(=O)NC1CCCC1 | inconclusive: 3.98 µM [inhibitor, partial curve, poor fit]
34 | Cc1ccc(NC(=O)CN(C(=O)N2CCN(C)CC2)S(=O)(=O)c2ccc(C)cc2)cc1 | inconclusive: 12.6 µM [inhibitor, partial curve]
35 | O=C(OCC(=O)c1ccc(Cl)s1)c1cncc(Br)c1 | inconclusive: 50.1 µM [inhibitor, single point]
36 | COC(=O)c1ccccc1NC(=O)c1cc(C2CC2)on1 | inconclusive: 35.5 µM [inhibitor, single point]
37 | Cc1ccccc1N=C/C=C1\N(C)c2ccccc2C1(C)C | inconclusive: 39.8 µM [fluorescent, side channel, partial curve, poor fit]
38 | CCCN(CC(=O)Nc1ccccc1OC)CC(=O)c1c(N)n(Cc2ccccc2)c(=O)n(C)c1=O | inactive
39 | C=CCn1c(SCC(=O)Nc2ncc(Cc3ccc(Br)cc3)s2)nnc1-c1ccncc1 | inconclusive: 5.01 µM [fluorescent, side channel, single point]
40 | Cc1cc2cc(CNC(=S)NCc3ccccc3)ccc2n1C | inconclusive: 50.1 µM [inhibitor, single point]
41 | Cc1cc(C(=O)OCC(=O)N(C)C2CCS(=O)(=O)C2)c(C)n1-c1ccccc1 (stereo not given) | inconclusive: 50.1 µM [fluorescent, side channel, partial curve, poor fit]
42 | Cc1ccc2nc(SCc3nc4ccccc4c(=O)[nH]3)[nH]c2c1 | inactive
43 | Nc1cccc2c(O)cc(S(=O)(=O)O)cc12 | inconclusive: 31.6 µM [inhibitor, partial curve, poor fit]
44 | COc1ccc(/C=C/c2nnc(NC(=O)COc3cccc(C)c3)s2)cc1 | inactive

Row | SMILES | Potency
45 | S=c1[nH]nc(CSCc2ccccc2Cl)n1C1CCCCC1 | inactive
46 | CC1=C(C#N)CCC(=O)N1Cc1c(F)cccc1Cl | inconclusive: 50.1 µM [inhibitor, single point]
47 | c1nc2sc3c(c2c2nnnn12)CCCC3 | inconclusive: 35.5 µM [fluorescent, side channel, partial curve, poor fit]
48 | Fc1ccccc1CN1CCN(c2ncccn2)CC1 | inactive
49 | Clc1ccc(OCc2nnnn2-c2ccccc2)cc1 | inactive
50 | CC(=O)C(=Cc1cn(-c2ccccc2)nc1-c1ccccc1)C(C)=O | inconclusive: 7.08 µM [inhibitor, partial curve, poor fit]
51 | Cc1ccc(-c2nnn(CC(=O)N(c3ccccc3)C(C(=O)NCC3CCCO3)c3ccc(F)cc3)n2)o1 (stereo not given) | inconclusive: 11.2 µM [inhibitor, single point]
52 | COc1ccc(-n2nnnc2SCC(=O)Nc2ccccc2N2CCOCC2)cc1 | inconclusive: 0.891 µM [quencher, side channel, full curve, poor fit]
53 | Cc1cc2cc(CNC(=O)c3ccco3)ccc2n1C | inconclusive: 39.8 µM [inhibitor, single point]
54 | Cc1noc(-c2ccccc2)c1NC(=O)Nc1ccc(Cl)cc1 | inconclusive: 50.1 µM [fluorescent, side channel, single point]
55 | CC(=O)c1cc(NC(=O)c2cccc(C(F)(F)F)c2)c(=O)oc1C | inactive
56 | O=C(CN1C(=O)NC(c2ccccc2)(c2ccccc2)C1=O)NCc1cccs1 | inconclusive: 28.2 µM [inhibitor, partial curve]
57 | CCOC(=O)N1CCC(NC(=O)c2ccc(CO)c(C(=O)NC3CCN(C(=O)OCC)CC3)c2)CC1 | inconclusive: 5.62 µM [inhibitor, partial curve, poor fit]
58 | CNC(=S)N/N=C/c1c(C)nn(-c2ccccc2)c1Cl | inconclusive: 7.94 µM [inhibitor, partial curve, poor fit]
59 | COc1ccc2c(c1)C=CC1(O2)N(CCO)c2ccccc2C1(C)C (stereo not given) | inconclusive: 39.8 µM [fluorescent, side channel, single point]
60 | Cc1ccc(C)c(NC(=O)COC(=O)c2cc(=O)c3ccccc3o2)c1 | inconclusive: 28.2 µM [inhibitor, partial curve, poor fit]
61 | CC(=O)NC(CC(=O)Nc1nc(-c2ccccc2)c(C(C)=O)s1)c1ccccc1 (stereo not given) | inconclusive: 50.1 µM [inhibitor, single point]
62 | O=C(Cn1nc(N2CCN(c3ccccc3)CC2)ccc1=O)NCc1ccccc1F | inactive
63 | Cc1cc(C)c(S(=O)(=O)NCCn2c(C)cc3ccccc32)c(C)c1 | inconclusive: 35.5 µM [inhibitor, single point]
64 | FC(F)(F)c1nc2cc3nc4ccccc4[nH]c3cc2n1 | inconclusive: 28.2 µM [inhibitor, partial curve]
65 | Cc1c2cc(O)c(=O)cc-2oc2cc(O)c(O)cc12 | inconclusive: 31.6 µM [fluorescent, partial curve, poor fit]
